Laboratory results published in patent US20100248359A1.
No constants are given. Whether binding was seen depends on the method and setting. Some results given as binding are weak or reduced against the parent protein; the word gives no strength.

The chains behind the UniProt entries cited, without tags or fusion partners. Residues count along the entry.
UniProt P51654, residues 25-358: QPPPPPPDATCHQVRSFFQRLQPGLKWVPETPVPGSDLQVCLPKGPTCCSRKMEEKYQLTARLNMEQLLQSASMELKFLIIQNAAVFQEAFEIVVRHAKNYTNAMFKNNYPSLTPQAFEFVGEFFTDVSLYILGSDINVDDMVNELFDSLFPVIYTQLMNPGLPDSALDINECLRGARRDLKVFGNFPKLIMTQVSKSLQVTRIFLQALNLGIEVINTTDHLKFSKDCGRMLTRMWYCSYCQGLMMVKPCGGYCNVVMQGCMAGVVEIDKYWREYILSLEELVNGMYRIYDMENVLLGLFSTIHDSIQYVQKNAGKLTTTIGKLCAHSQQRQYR

What was measured:
[1] = molecular target: secreted form of GPC3 in the culture supernatant of HepG2 (human) (UniProt P51654); experiment: immunoprecipitation of HepG2 culture supernatant
[2] = molecular target: secreted form of GPC3 in the culture supernatant of HepG2 (human) (UniProt P51654); experiment: immunoprecipitation of the culture supernatant of HepG2, detection of secreted GPC3
[3] = molecular target: secreted form of GPC3 in the culture supernatant of HepG2 (human) (UniProt P51654); experiment: sandwich ELISA of HepG2 culture supernatant
[4] = molecular target: secreted form of GPC3 in the culture supernatant of HepG2 (human) (UniProt P51654); experiment: sandwich ELISA of the culture supernatant of HepG2; plate-coated capture antibody, biotin-labelled developing antibody
[5] = molecular target: N-terminal fragment of 40 kDa of the soluble form of GPC3 core protein (human) (UniProt P51654); experiment: told in the legend of FIG. 4
[6] = molecular target: N-terminal fragment of 40 kDa of the soluble form of GPC3 core protein (human) (UniProt P51654); experiment: Western blotting (Example 11), told in Example 12
[7] = molecular target: C-terminal fragment of 30 kDa of the soluble form of GPC3 core protein (human) (UniProt P51654); experiment: Western blotting (Example 11), told in Example 12
[8] = molecular target: GC-1 (GST fusion of GPC3 Ser495 to Lys563) (human) (UniProt P51654); experiment: Western blotting of GST-fusion proteins, reducing SDS-PAGE
[9] = molecular target: GC-2 (GST fusion of GPC3 Gly510 to Lys563) (human) (UniProt P51654); experiment: as above

Measured: binding

B1: L9G11 (antibody, V domains shown)
VH: QVQLQQPGAELVKPGASVKLSCKASGYTFTSYWMHWVKQRPGQGLEWIGTIDPSDSETHYNLQFKDTATLTVDKSSSTAYMQLSSLTSEDSAVYYCIRGAFYSSYSYWAWFAYWGQGTLVTVSA
VL: DIVLTQSPTSLAVSLGQSVTISCRASESVEYYGTSLMQWYQQKPGQPPKLLIYGASNVESGVPARFSGSGSGTDFSLNIHPVEEDDIAMYFCQQSRKVPYTFGSGTKLEIK
binds: [1] | [2]

B2: M6B1 (antibody, V domains shown)
VH: EVQLVESGGDLVKPGGSLKLSCAASGFTFSSYAMSWVRQTPEKRLEWVAAINSNGGTTYYPDTMKDRFTISRDNAKNTLYLQMSSLRSEDSALYYCTRHNGGYENYGWFAYWGQGTLVTVSA
VL: DIQMTQSPSSLSASLGGKVTITCKASQDINKNIIWYQHKPGKGPRLLIWYTSTLQPGIPSRFSGSGSGRDYSFSISNLEPEDIATYYCLQYDNLPRTFGGGTKLEIK
binds: [3] | [1] | [2] | [4]

B3: M18D4 (antibody, human IgG1, kappa, V domains shown)
VH: EVQLQQSGTVLARPGASVKMSCKASGYTFTGYWMRWVKQRPGQGLEWIGAIYPGNSDTTYNQKFKGKAKLTAVTSVSTAYMELSSLTNEDSAVYYCSRSGDLTGGFAYWGQGTLVTVST
VL: DIVMTQAAFSNPVTLGTSTSISCRSSKSLLHSNGITYLYWYLQKPGQSPQLLIYQMSNLASGVPDRFSSSGSGTDFTLRISRVEAEDVGVYYCAQNLELPYTFGSGTKLEIKR
binds: [5] | [3] | [1] | [6] | [2] | [4]

B4: M5B9 (antibody, V domains shown)
VH: EVQLQQSGTVLARPGASVKMSCKASGYTFTGYWMHWVKQRPGQGLEWIGAIYPGNSDTNYNQKFKGKAKLTAVTSASTAYMELSSLTNEDAAVYHCTRSGDLTGGLAYWGQGTLVTVSA
VL: DIVMTQAAFSNPVTLGTSASISCRSSKSLLHSNGITYLYWFLQKPGQSPQLLIYQMSNLASGVPDRFSSSGSGTDFTLRISRVEAEDVGVYYCAQNLELPYTFGSGTKLEIK
binds: [1] | [2]

B5: M10D2 (antibody, V domains shown)
VH: QVQLQQPGAELVKPGASVKLSCKASGYTFTSYWMHWVKQRPGQGLEWIGEIDPSDSYTYYNQKFRGKATLTVDKSSNTAYMQLSSLTSEDSAVYYCSRSNLGDGHYRFPAFPYWGQGTLVTVSA
VL: DIVLTQSPATLSVTPGDRVSLSCRASHSISNFLHWYPQKSHESPRLLIKYASQSISGIPSRFSGNGSGTDFTLSINSVETEDFGMYFCQQSNIWSLTFGAGTKLELK
binds: [1] | [2]

B6: M1E7 (antibody, human IgG1, kappa, V domains shown)
VH: EVQLQQSGPELVKPGASVKISCKASGYSFTGYYMHWVKQSPEKSLEWIGEINPSTGGTTYNQKFKAKATLTVDKSSSTAYMQLKSLTSEDSAVYYCARRGGLTGTSFFAYWGQGTLVTVSA
VL: DVVMTQTPLSLSVTIGQPASISCKSSQSLLYSNGKTYLNWLQQRPGQAPKHLMYQVSKLDPGIPDRFSGSGSETDFTLKISRVEAEDLGVYYCLQSTYYPLTFGAGTKLELKR
binds: [7] | [8] | [9]
